# pIC50: −log10 of the molar value. At least one compound was matched to its structure with a doubt left.
# Tested on: HDAC
# Test: In vitro HDAC-inhibition assay (Fluor de Lys fluorescent substrate)
# Format: biochemical
# Details: HDAC enzyme source (e.g. partially purified nuclear extract or immunopurified HDAC complexes)
# Experimental: In vitro HDAC-Inhibition Assay:
# This assay measures a compound's ability to inhibit acetyl-lysine deacetylation in vitro and was used as both a primary screening method as well as for IC50 determinations of confirmed inhibitors. The assay is performed in vitro using an HDAC enzyme source (e.g. partially purified nuclear extract or immunopurified HDAC complexes) and a proprietary fluorescent substrate/developer system (HDAC Quantizyme Fluor de Lys Fluorescent Activity Assay, BIOMOL). The assay is run in 1,536-well Greiner white-bottom plates using the following volumes and order of addition: • Step 1: Enzyme (2.5 ul) source added to plate (from refrigerated container) • Step 2: Compounds (50 nl) added with pin transfer device • Step 3: Fluor de Lys (2.5 ul) substrate added, incubate at RT, 30 minutes • Step 4: Developer (5 ul) solution is added (containing TSA), to stop reaction • Step 5: Plate Reader—data collection • The deacetylated fluorophore is excited with 360 nm light and the emitted light (460 nm) is detected on an automated fluorometric plate reader (Aquest, Molecular Devices).
row,Structure (SMILES),pIC50
1,"CC(=O)Oc1ccccc1C(=O)SCC(=O)c1ccc(NS(=O)(=O)c2ccc(OC(F)(F)F)cc2)cc1 [Example 06, Acetic acid 2-{2-oxo-2-[4-(4-trifluoromethoxy-benzenesulfonylamino)-phenyl]-ethylsulfanylcarbonyl}-phenyl ester]",> 6.00
2,CC(=O)SCC(=O)c1ccc(NS(=O)(=O)c2cc(C)oc2C)cc1 [Example 31],> 6.00
3,"CC(C)(C)OC(=O)NCC(=O)SCC(=O)c1ccc(NS(=O)(=O)c2ccc(OC(F)(F)F)cc2)cc1 [Example 10, Tert-Butoxycarbonylamino-thioacetic acid S-{2-oxo-2-[4-(4-trifluoromethoxy-benzenesulfonylamino)-phenyl]-ethyl}ester]",> 6.00
4,"CC(=O)SCC(=O)c1ccc(N(C)S(=O)(=O)c2ccc(OC(F)(F)F)cc2)cc1 [Example 12, Thioacetic acid S-(2-{4-[methyl-(4-trifluoromethoxy-benzenesulfonyl)-amino]phenyl}-2-oxo-ethyl)ester]",> 6.00
5,"CC(=O)SCC(=O)c1ccc(S(=O)(=O)Nc2ccc(OC(F)(F)F)cc2)cc1 [Example 45, Thioacetic acid S-{2-oxo-2-[4-(4-trifluoromethoxy-phenylsulfamoyl)-phenyl]-ethyl}ester]",> 6.00
6,"O=C(CSC(=O)c1cccnc1)c1ccc(NS(=O)(=O)c2ccc(OC(F)(F)F)cc2)cc1 [Example 02, Thionicotinic acid S-{2-oxo-2-[4-(4-trifluorometlioxy-benzenesulfonylamino)-phenyl]-ethyl}ester]",> 6.00

# Source: patent US7381749B2, “Sulfonamides as inhibitors of histone deacetylase for the treatment of disease” (Kalypsys, Inc., priority 2004, dated 2008)
